Binding data for four substances are collected here from paper PMC2980493.

Amino acid sequences for entries named in this document (tags omitted). A change or cut given only in a name is not applied to a line headed by its entry.
UniProt P48432: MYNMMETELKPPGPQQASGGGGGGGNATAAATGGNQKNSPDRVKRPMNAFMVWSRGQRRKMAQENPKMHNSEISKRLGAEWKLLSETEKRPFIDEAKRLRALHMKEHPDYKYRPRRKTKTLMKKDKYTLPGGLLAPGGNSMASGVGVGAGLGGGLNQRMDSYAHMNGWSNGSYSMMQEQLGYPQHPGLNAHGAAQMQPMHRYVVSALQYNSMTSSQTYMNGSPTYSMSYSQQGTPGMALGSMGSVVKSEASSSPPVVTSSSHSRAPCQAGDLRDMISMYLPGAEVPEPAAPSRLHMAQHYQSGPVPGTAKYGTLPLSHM
UniProt O09106: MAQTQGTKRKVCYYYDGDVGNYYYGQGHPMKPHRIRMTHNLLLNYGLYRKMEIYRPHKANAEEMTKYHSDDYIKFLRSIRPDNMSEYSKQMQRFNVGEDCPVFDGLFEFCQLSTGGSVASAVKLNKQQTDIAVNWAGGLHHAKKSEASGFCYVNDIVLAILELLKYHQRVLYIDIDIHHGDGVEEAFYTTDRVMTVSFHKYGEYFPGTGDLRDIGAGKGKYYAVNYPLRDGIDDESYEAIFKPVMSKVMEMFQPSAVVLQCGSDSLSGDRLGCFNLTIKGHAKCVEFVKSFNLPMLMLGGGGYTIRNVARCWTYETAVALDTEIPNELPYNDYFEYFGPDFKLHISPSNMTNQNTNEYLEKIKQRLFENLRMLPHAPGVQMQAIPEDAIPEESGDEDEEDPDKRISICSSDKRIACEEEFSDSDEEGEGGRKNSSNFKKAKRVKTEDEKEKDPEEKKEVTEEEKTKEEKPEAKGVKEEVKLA
UniProt Q92769: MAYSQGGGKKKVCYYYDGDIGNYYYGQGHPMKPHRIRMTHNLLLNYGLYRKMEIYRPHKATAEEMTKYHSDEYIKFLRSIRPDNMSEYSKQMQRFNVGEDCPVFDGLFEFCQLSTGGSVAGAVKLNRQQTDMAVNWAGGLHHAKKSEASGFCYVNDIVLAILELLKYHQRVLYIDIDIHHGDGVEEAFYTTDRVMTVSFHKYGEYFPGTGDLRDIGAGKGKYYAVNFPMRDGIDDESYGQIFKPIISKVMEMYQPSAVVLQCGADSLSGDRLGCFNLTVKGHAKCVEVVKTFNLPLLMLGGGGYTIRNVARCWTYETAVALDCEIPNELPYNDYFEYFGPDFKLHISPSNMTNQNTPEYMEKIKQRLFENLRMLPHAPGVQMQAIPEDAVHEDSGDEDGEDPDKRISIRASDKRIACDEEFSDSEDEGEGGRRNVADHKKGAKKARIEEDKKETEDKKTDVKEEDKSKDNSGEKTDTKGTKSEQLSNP
UniProt Q8BX22: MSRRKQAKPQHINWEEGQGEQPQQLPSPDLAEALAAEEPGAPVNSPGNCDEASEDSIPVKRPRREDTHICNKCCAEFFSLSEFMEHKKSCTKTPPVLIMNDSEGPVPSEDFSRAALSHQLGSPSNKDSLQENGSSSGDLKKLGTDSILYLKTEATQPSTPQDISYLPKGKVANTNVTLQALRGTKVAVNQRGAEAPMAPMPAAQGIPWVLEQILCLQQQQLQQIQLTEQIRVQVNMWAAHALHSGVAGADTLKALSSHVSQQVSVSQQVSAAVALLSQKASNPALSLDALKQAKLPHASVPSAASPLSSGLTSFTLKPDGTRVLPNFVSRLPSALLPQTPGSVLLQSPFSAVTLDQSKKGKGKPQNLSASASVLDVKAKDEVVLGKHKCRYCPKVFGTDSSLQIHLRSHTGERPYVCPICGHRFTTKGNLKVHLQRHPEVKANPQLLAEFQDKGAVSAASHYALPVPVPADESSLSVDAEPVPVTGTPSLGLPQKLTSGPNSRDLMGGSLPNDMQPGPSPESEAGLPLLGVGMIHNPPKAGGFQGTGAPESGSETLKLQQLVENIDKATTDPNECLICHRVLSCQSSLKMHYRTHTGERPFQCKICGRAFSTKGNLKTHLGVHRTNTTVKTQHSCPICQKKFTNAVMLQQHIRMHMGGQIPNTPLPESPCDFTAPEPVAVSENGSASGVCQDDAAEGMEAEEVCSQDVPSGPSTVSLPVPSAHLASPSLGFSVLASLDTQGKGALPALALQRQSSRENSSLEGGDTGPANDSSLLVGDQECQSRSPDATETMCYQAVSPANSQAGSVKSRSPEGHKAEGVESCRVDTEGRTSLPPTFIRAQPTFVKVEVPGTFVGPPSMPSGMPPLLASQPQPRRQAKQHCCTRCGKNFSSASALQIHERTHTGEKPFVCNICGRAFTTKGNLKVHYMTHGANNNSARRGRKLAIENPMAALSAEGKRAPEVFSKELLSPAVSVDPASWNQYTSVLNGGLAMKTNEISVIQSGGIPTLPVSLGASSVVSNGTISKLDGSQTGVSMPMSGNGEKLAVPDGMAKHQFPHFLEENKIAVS

These are yes or no findings as the source states them, for the method shown. Binding seen in cells or lysates may run through a third protein. For some of these results: Binding can be weak; no strength is given.

For experiment [1], the target named is Flag-Sox2-ΔHMG (UniProt P48432). The experiment in a line: co-IP; 293T cells transiently transfected with both partners; nuclear extracts (NE-PER kit) 1 day later; Flag-Sox2 constructs precipitated on anti-Flag M2-beads; eluates probed by western blot. In general terms: In western blotting, separated proteins are transferred to a membrane and probed.
The target is the same in experiment [2]. As to the kind of experiment: co-IP; 293T cells transiently transfected with Flag-Sox2 constructs only; endogenous HDAC2; nuclear extracts, anti-Flag M2-beads, western blot.

For “HDAC1 (from UniProt O09106 1-482) (enzyme)”, the binding result with Flag-Sox2-ΔHMG [1] was “binds”.
For the substance “endogenous HDAC2 (from UniProt Q92769 1-488) (enzyme)”, the binding entry with Flag-Sox2-ΔHMG [2] is on record as “no binding”.
In the case of GFP-Sox2-ΔHMG (from UniProt P48432), the binding result in the experiment with Flag-Sox2-ΔHMG [1] was “binds”.
Sall4 (from UniProt Q8BX22 1-1067): in the experiment with Flag-Sox2-ΔHMG [1], the binding entry is “binds”.
